Reference: US9537110B2, “Chalcogen-containing organic compound and use thereof” (JNC CORPORATION, priority 2012, dated 2017)

How the values were obtained:
[1] = Bottom gate-top contact organic FET, film formed by vapor deposition process; conditions: vapor-deposited organic semiconductor layer, film thickness 75 nm
[2] = Bottom gate-top contact organic FET, film formed by edge-cast process; conditions: o-xylene or 1,2-dichloroethane solution 0.2% by mass, 120° C.
[3] = Bottom gate-top contact organic FET, film formed by gap-cast process; conditions: o-dichlorobenzene solution 0.2% by mass, 120° C.

Structure (SMILES)	Carrier mobility [1]	ON-OFF ratio [1]	Carrier mobility [2]	ON-OFF ratio [2]	Carrier mobility [3]	ON-OFF ratio [3]
c1ccc2cc3c(cc2c1)sc1cc2ccccc2cc13 [Comparative Example 1, dinaphtho[2,3-b:2′,3′-d]thiophene]	0.4 cm^2/V·s	10^6				
CCCCCCCCCCc1ccc2cc3oc4cc5ccc(CCCCCCCCCC)cc5cc4c3cc2c1 [Example 1, 2,10-didecyldinaphtho[2,3-b:2′,3′-d]furan]			1.3 cm^2/V • s	10^6		
CCCCCCCCCCc1ccc2cc3sc4cc5ccc(CCCCCCCCCC)cc5cc4c3cc2c1 [Example 2, 2,10-didecyldinaphtho[2,3-b:2′,3′-d]thiophene]			1.0 cm^2/V • s	10^5		
CCCCCCCCCCc1ccc2cc3c(cc2c1)oc1cc2cc(CCCCCCCCCC)ccc2cc13 [Example 3, 3,9-didecyldinaphtho[2,3-b:2′,3′-d]furan]			2.0 cm^2/V • s	10^5		
CCCCCCCCCCc1ccc2cc3c(cc2c1)sc1cc2cc(CCCCCCCCCC)ccc2cc13 [Example 6, 3,9-didecyldinaphtho[2,3-b:2′,3′-d]thiophene]	5.5 cm^2/V·s	10^7			6.5 cm^2/V • s	10^7
CCCCCCc1ccc2cc3c(cc2c1)sc1cc2cc(CCCCCC)ccc2cc13 [Example 7, 3,9-dihexyldinaphtho[2,3-b:2′,3′-d]thiophene]			11.0 cm^2/V • s	10^7		
CCCCCCCCc1ccc2cc3c(cc2c1)sc1cc2cc(CCCCCCCC)ccc2cc13 [Example 8, 3,9-dioctyldinaphtho[2,3-b:2′,3′-d]thiophene]					4.5 cm^2/V • s	10^7
CCCCc1ccc2cc3c(cc2c1)sc1cc2cc(CCCC)ccc2cc13 [Example 9, 3,9-dibutyldinaphtho[2,3-b:2′,3′-d]thiophene]			6.0 cm^2/V • s	10^6		
